Data as given in publication PMC7791840, “The R-enantiomer of ketorolac reduces ovarian cancer tumor burden in vivo” (BMC Cancer, 2021).
Counter-ions that a name gives are not always drawn.

How the values were obtained:
COX1 = assay: Western blot of tumor COX1 protein; format: in vivo; details: 1 mg/kg twice daily
COX2 = assay: Western blot of tumor COX2 protein; format: in vivo; details: 1 mg/kg twice daily
[1] = tested on: ADM, CXCR4, DUSP1, FAM43A, HK2, HMOX1, IGFBP5, KRT19, and VEGFA; assay: qRT-PCR validation of RNA-seq in tumors; format: in vivo, human

Structure (SMILES) | COX1 protein level in tumors (COX1) | COX2 protein level in tumors (COX2) | CXCR4 expression in tumors ([1]; in vivo, vs placebo) | Expression of 9 genes (ADM, CXCR4, DUSP1, FAM43A, HK2, HMOX1, IGFBP5, KRT19, VEGFA) by qRT-PCR ([1]; tumors, vs placebo control) | VEGFA expression in tumors ([1]; vs placebo)
O=C(c1ccccc1)c1ccc2n1CC[C@H]2C(=O)O [R-ketorolac] | unaffected | unaffected | significantly reduced | decreased expression | decreased expression of the angiogenic marker VEGFA
O=C(c1ccccc1)c1ccc2n1CCC2C(=O)O (stereo not drawn) [R−/S-ketorolac, ketorolac tromethamine salt] | decreased | decreased |  |  | 
O=C(c1ccccc1)c1ccc2n1CC[C@@H]2C(=O)O [S-ketorolac] | decreased | decreased |  |  | 
